Experimental data: PubChem BioAssay AID504786 (Drosophila RNAi Screening Center, 2011)

- Purpose: 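Knock-downs reducing HIF reporter induction by the iron chelator DFO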 (primary screen)
- System: Drosophila S2 cells with a stable HIF luciferase reporter
- Reagent: long dsRNA against Drosophila genes, about 0.2 µg dsRNA per well of a 384-well plate
- Time to read-out: three days of knock-down, then 20 h of DFO before reading
- Challenge: desferrioxamine (DFO) at 100 µM, an iron chelator that mimics hypoxia, for 20 h
- Detection: 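Firefly luciferase driven by the mouse ldh-a hypoxia-response element, measured after 20 h of 100 µM DFO; z-scores per plate, higher means more signal lost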
- Direction: z-score: higher = stronger loss of HIF reporter signal
The deposit covers about 21,000 reagents; shown is an unselected part of those with a known target gene and a result. 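Primary screen; positive scores mean lost reporter signal, so the sign may be inverted from the usual convention.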 The numbers tell different reagents against one gene apart. Not all columns of the deposit are shown.

For fz4, how do the results read?
z-score, replicate 1: -0.3

Which result is listed for Arl2?
z-score, replicate 1: -0.4

What did the screen give for Rbcn-3B?
z-score, replicate 1: 0.1

How did the screen score lms?
z-score, replicate 1: -0.3

How did the screen score Sas10?
z-score, replicate 1: -0.1

Which result is listed for Adss?
z-score, replicate 1: -0.1

How did the screen score Rab3-GEF #1?
z-score, replicate 1: -0.4

With Rab3-GEF #2, what does the deposit list?
z-score, replicate 1: -0.1

With Rab3-GEF #3, how do the results read?
z-score, replicate 1: 3.5

Which result is listed for CG8219?
z-score, replicate 1: -0.4

Which result is listed for CG12507?
z-score, replicate 1: -0.1

For CG14635, what does the deposit list?
z-score, replicate 1: -0.2

Which result is listed for Ac78C #1?
z-score, replicate 1: -0.2

What is on record for Ac78C #2?
z-score, replicate 1: -0.3

What is on record for Ac78C #3?
z-score, replicate 1: -0.1

What did the screen give for brun?
z-score, replicate 1: -0.5

Which result is listed for VhaAC39-2?
z-score, replicate 1: -0.5

For CG2685, what was measured?
z-score, replicate 1: 3

With wupA, how do the results read?
z-score, replicate 1: -0.2

How did the screen score Cpr11B?
z-score, replicate 1: 0

How did the screen score Mf?
z-score, replicate 1: -0.3

3 entries already listed, sorted by “z-score, replicate 1”, ascending:
VhaAC39-2 → z-score, replicate 1: -0.5
wupA → z-score, replicate 1: -0.2
CG2685 → z-score, replicate 1: 3

Continued:
What is on record for Vps20?
z-score, replicate 1: -0.4

What did the screen give for Prp6?
z-score, replicate 1: -0.3

With Ccp84Ac, what does the deposit list?
z-score, replicate 1: -0.3

How did the screen score Lac?
z-score, replicate 1: -0.2

For PpN58A, what was measured?
z-score, replicate 1: -0.4

Which result is listed for Rrp40?
z-score, replicate 1: -0.4

What did the screen give for CG7829?
z-score, replicate 1: -0.2

For Sclp, what does the deposit list?
z-score, replicate 1: -0.3

What did the screen give for CG3223?
z-score, replicate 1: 0

With spict, what does the deposit list?
z-score, replicate 1: -0.3

With Rad17, what was measured?
z-score, replicate 1: -0.5

For SCCRO3, what was measured?
z-score, replicate 1: -0.3

For CG15382, what does the deposit list?
z-score, replicate 1: 0

With Cpr49Aa, what was measured?
z-score, replicate 1: -0.3

How did the screen score CG3277?
z-score, replicate 1: -0.2

For tn #1, how do the results read?
z-score, replicate 1: -0.2

With tn #2, how do the results read?
z-score, replicate 1: -0.2

How did the screen score MICU3 #1?
z-score, replicate 1: -0.3

For MICU3 #2, what was measured?
z-score, replicate 1: -0.1
